Reference: PubChem BioAssay AID504786 (Drosophila RNAi Screening Center, 2011)
Test: 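Fly genes required for HIF-dependent transcription when hypoxia is mimicked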 (primary screen). Cell system: Drosophila S2 cells with a stable HIF luciferase reporter. Reagents: long dsRNA against Drosophila genes, about 0.2 µg dsRNA per well of a 384-well plate. Time to read-out: three days of knock-down, then 20 h of DFO before reading. Conditions: desferrioxamine (DFO) at 100 µM, an iron chelator that mimics hypoxia, for 20 h. Measured: 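HIF reporter luminescence in cells given 100 µM DFO for 20 h, using the mouse ldh-a hypoxia-response element, scored as per-plate z-scores; higher means greater loss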. Reading the numbers: z-score: higher = stronger loss of HIF reporter signal.
The screen tested about 21,000 reagents; below is a random part of those with a known target gene and a result. 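Primary screen; positive scores mean lost reporter signal, so the sign may be inverted from the usual convention.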 A plus sign joins genes that one reagent is predicted to hit. Not all columns of the deposit are shown.

z-score, replicate 1, by target gene and reagent
Cap-D3 + tomb: SID104182139 -0.3
Art1 (GeneID 41295): SID104195855 -0.4
natalisin (GeneID 5740700): SID104194758 0.9; SID104194759 0.1
regucalcin (GeneID 32165): SID104198700 0; SID104200158 -0.3
UGP (GeneID 39065): SID104190203 -0.1
Dh44-R1 (GeneID 36601): SID104186964 -0.3
Blos2 (GeneID 39234): SID104189939 -0.2
CG13605 (GeneID 42858): SID104194400 -0.2
wb (GeneID 43946): SID104181167 2.9; SID104183426 -0.3
Dph4 (GeneID 40686): SID104192110 -0.4
CG32189 (GeneID 317902): SID104189303 -0.2
Cdc37 (GeneID 38232): SID104188440 0.1
Trc8 (GeneID 43476): SID104195229 -0.3
CG4041 (GeneID 31422): SID104198131 -0.3
Mnr (GeneID 33098): SID104200341 -0.3; SID104200342 -0.1
CG17404 (GeneID 41482): SID104195026 -0.4
xmas-1 (retired record) (GeneID 44660): SID104200178 -0.3
PIG-Wa (GeneID 33425): SID104180520 -0.3
Fbp2 (GeneID 34259): SID104183119 -0.3
Gar1 (GeneID 37397): SID104184233 0.3
CG31642 (GeneID 326149): SID104182711 -0.2
CR30029 (GeneID 5740197): SID104186516 -0.2
Sec5 (GeneID 33563): SID104180506 -0.4
CG16970 (retired record) (GeneID 34740): SID104181102 0.1; SID104182341 -0.3
Usp2 (GeneID 33132): SID104200382 0.4; SID104200424 -0.2; SID104200425 1
Mad (GeneID 33529): SID104180551 -0.3
CG15599 (GeneID 32503): SID104199460 -0.4
CG1774 (GeneID 43722): SID104195050 -0.1
Dys + snoRNA:Me18S-A1374: SID104196024 0.1
CG7546 (GeneID 38844): SID104188677 -0.3; SID104190663 -0.4
dib (GeneID 45282): SID104188503 -0.3
CG7215 + Prx5: SID104196006 0; SID104196007 -0.3
Tbh (GeneID 31718): SID104198515 -0.3
CG12010 (GeneID 38421): SID104188010 -0.3
CG5787 (GeneID 34684): SID104182687 -0.1
CG42735 (retired record) (GeneID 10178938): SID104180713 0.3
Ptp10D (GeneID 32115): SID104200064 -0.3
CG42450 (GeneID 32874): SID104199814 -0.3
CG8142 (GeneID 32763): SID104199878 -0.2
CG6310 (GeneID 39237): SID104190411 -0.2
CG11656 (GeneID 41600): SID104194130 -0.3
bab1 (GeneID 38116): SID104188171 -0.4; SID104188501 0.1
dbf (GeneID 34462): SID104182362 -0.1
CG3847 (GeneID 31577): SID104197236 -0.2; SID104198119 1.4
pr (GeneID 35292): SID104183388 -0.4
CG5645 (GeneID 39382): SID104190324 0.1
asRNA:CR42547 + CG15674: SID104184056 -0.2
Fis1 (GeneID 49892): SID104187564 -0.4
CG7715 (GeneID 42251): SID104196093 -1
CG4452 (GeneID 39069): SID104190214 0.3
Tapdelta (GeneID 45680): SID104185738 -0.2
Or82a (GeneID 318778): SID104191788 0.3
dind (GeneID 42243): SID104196086 -0.2
ND-B14.5A (GeneID 31190): SID104198292 -0.2
CG1847 (GeneID 32144): SID104199602 -0.2
CG4020 (GeneID 31522): SID104198129 -0.2
GstT3 (GeneID 33047): SID104200333 -0.2
CG9861 (GeneID 37692): SID104184368 -0.1
mRpL44 (GeneID 40656): SID104192098 0.8
srp (GeneID 41944): SID104192917 -0.2; SID104196860 2.1
Nadk1a (GeneID 36506): SID104185223 -0.2; SID104186755 -0.5
mim (GeneID 2768716): SID104184805 1.4
CG2202 (GeneID 32014): SID104199633 -0.2
tral (GeneID 39430): SID104189571 -0.5
Asciz (GeneID 38381): SID104188213 -0.1
Svil (GeneID 38306): SID104187773 -0.2; SID104188088 -0.3; SID104188124 -0.2; SID104188125 2.2; SID104188286 0.1

Records above whose gene name starts with U or u:
z-score, replicate 1, by target gene and reagent
UGP (GeneID 39065): SID104190203 -0.1
Usp2 (GeneID 33132): SID104200382 0.4; SID104200424 -0.2; SID104200425 1
